For one substance, binding results are on record in patent US20250263443A1.

These are yes or no findings as the source states them, for the method shown. Some results given as binding are weak or reduced against the parent protein; the word gives no strength.

This assay concerns the target SA11 NSP3 fused to remnant residues of the 2A element (NSP3-2A) expressed by rSA11/NSP3-2A-NoV viruses (simian rotavirus A SA11) (UniProt P03536). Nature of the assay: self-association, summary of the 25 C gel/immunoblot experiment.

Take “SA11 NSP3 fused to remnant residues of the 2A element (NSP3-2A) expressed by rSA11/NSP3-2A-NoV viruses (from UniProt P03536 1-315)”: the binding entry is “binds”.
